Experimental data published in PMC6994238.
These are yes or no findings as the source states them, for the method shown. Some binding calls cover weakened binding; strength is not graded here.

Chains of the proteins cited; added tags and fusions are not shown.
UniProt B1B601: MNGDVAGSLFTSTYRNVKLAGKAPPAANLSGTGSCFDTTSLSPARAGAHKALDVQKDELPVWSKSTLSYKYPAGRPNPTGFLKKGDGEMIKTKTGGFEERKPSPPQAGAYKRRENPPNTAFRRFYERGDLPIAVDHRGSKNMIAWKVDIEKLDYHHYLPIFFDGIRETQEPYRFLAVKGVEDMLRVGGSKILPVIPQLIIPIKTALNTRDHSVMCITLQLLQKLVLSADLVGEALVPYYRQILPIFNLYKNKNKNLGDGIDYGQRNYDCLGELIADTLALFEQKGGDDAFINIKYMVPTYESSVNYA
UniProt P04690: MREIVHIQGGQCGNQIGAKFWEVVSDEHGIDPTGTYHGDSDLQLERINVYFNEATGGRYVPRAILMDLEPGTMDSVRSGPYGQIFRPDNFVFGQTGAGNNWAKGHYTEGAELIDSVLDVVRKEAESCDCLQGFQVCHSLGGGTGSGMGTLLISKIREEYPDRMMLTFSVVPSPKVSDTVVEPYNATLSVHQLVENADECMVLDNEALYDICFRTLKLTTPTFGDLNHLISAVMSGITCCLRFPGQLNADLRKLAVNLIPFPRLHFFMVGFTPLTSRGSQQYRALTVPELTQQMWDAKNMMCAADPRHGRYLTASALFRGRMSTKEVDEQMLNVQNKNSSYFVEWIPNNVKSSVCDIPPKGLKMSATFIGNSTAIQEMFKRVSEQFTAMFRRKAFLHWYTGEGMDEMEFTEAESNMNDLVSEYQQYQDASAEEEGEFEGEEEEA

Tests used:
[1] = molecular target: PArkin Co-Regulated Gene (PACRG), Chlamydomonas reinhardtii (Chlamydomonas reinhardtii) (UniProt B1B601); test: cryo-EM structure; taxol-stabilised, 0.6 M NaCl-washed doublet microtubules isolated from Chlamydomonas flagella; 16 nm repeat map, focused refinement of the inner junction to 3.6 Å; atomic model PDB 6VE7
[2] = molecular target: β-tubulin, Chlamydomonas reinhardtii (Chlamydomonas reinhardtii) (UniProt P04690); test: as above

B1: FAP20, Chlamydomonas reinhardtii (protein, UniProt A8IU92 1-190)
chain: MFKNAFQSGFLSVLYSIGSKPLEIWDKQVSNGHIKRITDADIQSSVLEIMGQNVSTTYITCPADPNKTLGIKLPFLVLIIKNLNKYFSFEVQVLDDKNVRRRFRASNYQSTTRVKPFICTMPMRLDSGWNQIQFNLSDFTRRAYGTNYIETLRVQVHANCRIRRIYFSDRLYSEEELPAEFKLFLPIQKS
- binding [1]: binds
- binding [2]: binds
